Measurements reported in patent publication US20160046943, “Interferon Production Using Short RNA Duplexes” (YALE UNIVERSITY, published 2016).
Where a protein sequence is shown, tags need not be part of it.

Biological target: T1, RIG-I (full length, pUNO-RIG-I in 293T) (UniProt O95786)
T1 sequence (looked up): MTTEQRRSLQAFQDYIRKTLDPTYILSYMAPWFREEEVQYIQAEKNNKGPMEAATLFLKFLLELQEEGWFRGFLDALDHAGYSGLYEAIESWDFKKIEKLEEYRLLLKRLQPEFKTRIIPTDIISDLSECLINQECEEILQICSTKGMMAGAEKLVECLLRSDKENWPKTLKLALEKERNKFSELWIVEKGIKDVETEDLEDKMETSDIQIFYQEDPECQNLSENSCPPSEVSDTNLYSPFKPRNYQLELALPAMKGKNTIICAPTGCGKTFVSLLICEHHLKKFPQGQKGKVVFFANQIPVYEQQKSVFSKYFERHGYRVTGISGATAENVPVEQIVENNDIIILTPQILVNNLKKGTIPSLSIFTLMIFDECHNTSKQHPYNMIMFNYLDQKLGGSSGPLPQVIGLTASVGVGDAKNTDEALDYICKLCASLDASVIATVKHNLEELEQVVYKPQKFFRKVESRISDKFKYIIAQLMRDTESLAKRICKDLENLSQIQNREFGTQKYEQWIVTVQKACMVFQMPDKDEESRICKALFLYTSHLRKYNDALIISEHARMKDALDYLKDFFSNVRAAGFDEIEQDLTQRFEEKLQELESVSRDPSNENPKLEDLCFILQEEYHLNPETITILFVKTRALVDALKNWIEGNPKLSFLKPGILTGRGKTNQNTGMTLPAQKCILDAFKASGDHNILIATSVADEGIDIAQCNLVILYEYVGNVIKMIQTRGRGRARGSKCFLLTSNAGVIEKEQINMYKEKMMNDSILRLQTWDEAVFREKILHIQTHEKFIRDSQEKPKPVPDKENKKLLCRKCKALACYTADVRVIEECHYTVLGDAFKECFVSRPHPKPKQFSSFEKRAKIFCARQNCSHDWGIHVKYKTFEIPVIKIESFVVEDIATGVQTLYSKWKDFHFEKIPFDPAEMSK
Experiment: activity in cells
Conditions: 5'-triphosphate, IFN-beta luciferase reporter in 293T, protein in cells, protein details: pUNO-RIG-I expression plasmid

[1] = comparable to positive controls

| Sequence | functional effect [1] | functional effect (positive control) |
| --- | --- | --- |
| GGAUCGAUCGAUCGAUCGGCUUCGGCCGAUCGAUCGAUCGAUCC [5'ppp20L] | active | – |
| GGAUCGAUCGAUCGAUCGGCAUCGAUCGGCUUCGGCCGAUCGAUGCCGAUCGAUCGAUCGAUCC [5'ppp30L] | active | – |
| GGCGCGCGCGCGCGCGCGCGCC (double strand) [5'pppGC22] | – | active |
